Laboratory results from PubChem BioAssay AID2662 (National Center for Advancing Translational Sciences (NCATS), 2010).
“And” between values parts separate entries of the source, which are not always exact repeats. Identical values can stand only once. In all, about 290,000 compounds went through this assay and about 110 (0.038%) were called active. Inconclusive means that the source gave no clear call. Such entries were picked first, then a sample of the others. Calls come from the whole dose curve; as a rule, active = well fitted inhibition curve with a large enough effect in the polarisation, with a control signal flat (not every such curve was filed as active); inconclusive = small, poorly fitted or top-dose-only effect, or effect the other way, or a change in a side signal; inactive = no such curve, though single readings can be large or run the other way; the % refers to the polarisation. Potencies of inconclusive entries are doubtful fits and often do not repeat. A note “side channel” means that the fit belongs to a control or component signal, not to the main read-out.

Amino acid sequences for entries named in this document (tags omitted).
UniProt Q03164, whole entry, looked up: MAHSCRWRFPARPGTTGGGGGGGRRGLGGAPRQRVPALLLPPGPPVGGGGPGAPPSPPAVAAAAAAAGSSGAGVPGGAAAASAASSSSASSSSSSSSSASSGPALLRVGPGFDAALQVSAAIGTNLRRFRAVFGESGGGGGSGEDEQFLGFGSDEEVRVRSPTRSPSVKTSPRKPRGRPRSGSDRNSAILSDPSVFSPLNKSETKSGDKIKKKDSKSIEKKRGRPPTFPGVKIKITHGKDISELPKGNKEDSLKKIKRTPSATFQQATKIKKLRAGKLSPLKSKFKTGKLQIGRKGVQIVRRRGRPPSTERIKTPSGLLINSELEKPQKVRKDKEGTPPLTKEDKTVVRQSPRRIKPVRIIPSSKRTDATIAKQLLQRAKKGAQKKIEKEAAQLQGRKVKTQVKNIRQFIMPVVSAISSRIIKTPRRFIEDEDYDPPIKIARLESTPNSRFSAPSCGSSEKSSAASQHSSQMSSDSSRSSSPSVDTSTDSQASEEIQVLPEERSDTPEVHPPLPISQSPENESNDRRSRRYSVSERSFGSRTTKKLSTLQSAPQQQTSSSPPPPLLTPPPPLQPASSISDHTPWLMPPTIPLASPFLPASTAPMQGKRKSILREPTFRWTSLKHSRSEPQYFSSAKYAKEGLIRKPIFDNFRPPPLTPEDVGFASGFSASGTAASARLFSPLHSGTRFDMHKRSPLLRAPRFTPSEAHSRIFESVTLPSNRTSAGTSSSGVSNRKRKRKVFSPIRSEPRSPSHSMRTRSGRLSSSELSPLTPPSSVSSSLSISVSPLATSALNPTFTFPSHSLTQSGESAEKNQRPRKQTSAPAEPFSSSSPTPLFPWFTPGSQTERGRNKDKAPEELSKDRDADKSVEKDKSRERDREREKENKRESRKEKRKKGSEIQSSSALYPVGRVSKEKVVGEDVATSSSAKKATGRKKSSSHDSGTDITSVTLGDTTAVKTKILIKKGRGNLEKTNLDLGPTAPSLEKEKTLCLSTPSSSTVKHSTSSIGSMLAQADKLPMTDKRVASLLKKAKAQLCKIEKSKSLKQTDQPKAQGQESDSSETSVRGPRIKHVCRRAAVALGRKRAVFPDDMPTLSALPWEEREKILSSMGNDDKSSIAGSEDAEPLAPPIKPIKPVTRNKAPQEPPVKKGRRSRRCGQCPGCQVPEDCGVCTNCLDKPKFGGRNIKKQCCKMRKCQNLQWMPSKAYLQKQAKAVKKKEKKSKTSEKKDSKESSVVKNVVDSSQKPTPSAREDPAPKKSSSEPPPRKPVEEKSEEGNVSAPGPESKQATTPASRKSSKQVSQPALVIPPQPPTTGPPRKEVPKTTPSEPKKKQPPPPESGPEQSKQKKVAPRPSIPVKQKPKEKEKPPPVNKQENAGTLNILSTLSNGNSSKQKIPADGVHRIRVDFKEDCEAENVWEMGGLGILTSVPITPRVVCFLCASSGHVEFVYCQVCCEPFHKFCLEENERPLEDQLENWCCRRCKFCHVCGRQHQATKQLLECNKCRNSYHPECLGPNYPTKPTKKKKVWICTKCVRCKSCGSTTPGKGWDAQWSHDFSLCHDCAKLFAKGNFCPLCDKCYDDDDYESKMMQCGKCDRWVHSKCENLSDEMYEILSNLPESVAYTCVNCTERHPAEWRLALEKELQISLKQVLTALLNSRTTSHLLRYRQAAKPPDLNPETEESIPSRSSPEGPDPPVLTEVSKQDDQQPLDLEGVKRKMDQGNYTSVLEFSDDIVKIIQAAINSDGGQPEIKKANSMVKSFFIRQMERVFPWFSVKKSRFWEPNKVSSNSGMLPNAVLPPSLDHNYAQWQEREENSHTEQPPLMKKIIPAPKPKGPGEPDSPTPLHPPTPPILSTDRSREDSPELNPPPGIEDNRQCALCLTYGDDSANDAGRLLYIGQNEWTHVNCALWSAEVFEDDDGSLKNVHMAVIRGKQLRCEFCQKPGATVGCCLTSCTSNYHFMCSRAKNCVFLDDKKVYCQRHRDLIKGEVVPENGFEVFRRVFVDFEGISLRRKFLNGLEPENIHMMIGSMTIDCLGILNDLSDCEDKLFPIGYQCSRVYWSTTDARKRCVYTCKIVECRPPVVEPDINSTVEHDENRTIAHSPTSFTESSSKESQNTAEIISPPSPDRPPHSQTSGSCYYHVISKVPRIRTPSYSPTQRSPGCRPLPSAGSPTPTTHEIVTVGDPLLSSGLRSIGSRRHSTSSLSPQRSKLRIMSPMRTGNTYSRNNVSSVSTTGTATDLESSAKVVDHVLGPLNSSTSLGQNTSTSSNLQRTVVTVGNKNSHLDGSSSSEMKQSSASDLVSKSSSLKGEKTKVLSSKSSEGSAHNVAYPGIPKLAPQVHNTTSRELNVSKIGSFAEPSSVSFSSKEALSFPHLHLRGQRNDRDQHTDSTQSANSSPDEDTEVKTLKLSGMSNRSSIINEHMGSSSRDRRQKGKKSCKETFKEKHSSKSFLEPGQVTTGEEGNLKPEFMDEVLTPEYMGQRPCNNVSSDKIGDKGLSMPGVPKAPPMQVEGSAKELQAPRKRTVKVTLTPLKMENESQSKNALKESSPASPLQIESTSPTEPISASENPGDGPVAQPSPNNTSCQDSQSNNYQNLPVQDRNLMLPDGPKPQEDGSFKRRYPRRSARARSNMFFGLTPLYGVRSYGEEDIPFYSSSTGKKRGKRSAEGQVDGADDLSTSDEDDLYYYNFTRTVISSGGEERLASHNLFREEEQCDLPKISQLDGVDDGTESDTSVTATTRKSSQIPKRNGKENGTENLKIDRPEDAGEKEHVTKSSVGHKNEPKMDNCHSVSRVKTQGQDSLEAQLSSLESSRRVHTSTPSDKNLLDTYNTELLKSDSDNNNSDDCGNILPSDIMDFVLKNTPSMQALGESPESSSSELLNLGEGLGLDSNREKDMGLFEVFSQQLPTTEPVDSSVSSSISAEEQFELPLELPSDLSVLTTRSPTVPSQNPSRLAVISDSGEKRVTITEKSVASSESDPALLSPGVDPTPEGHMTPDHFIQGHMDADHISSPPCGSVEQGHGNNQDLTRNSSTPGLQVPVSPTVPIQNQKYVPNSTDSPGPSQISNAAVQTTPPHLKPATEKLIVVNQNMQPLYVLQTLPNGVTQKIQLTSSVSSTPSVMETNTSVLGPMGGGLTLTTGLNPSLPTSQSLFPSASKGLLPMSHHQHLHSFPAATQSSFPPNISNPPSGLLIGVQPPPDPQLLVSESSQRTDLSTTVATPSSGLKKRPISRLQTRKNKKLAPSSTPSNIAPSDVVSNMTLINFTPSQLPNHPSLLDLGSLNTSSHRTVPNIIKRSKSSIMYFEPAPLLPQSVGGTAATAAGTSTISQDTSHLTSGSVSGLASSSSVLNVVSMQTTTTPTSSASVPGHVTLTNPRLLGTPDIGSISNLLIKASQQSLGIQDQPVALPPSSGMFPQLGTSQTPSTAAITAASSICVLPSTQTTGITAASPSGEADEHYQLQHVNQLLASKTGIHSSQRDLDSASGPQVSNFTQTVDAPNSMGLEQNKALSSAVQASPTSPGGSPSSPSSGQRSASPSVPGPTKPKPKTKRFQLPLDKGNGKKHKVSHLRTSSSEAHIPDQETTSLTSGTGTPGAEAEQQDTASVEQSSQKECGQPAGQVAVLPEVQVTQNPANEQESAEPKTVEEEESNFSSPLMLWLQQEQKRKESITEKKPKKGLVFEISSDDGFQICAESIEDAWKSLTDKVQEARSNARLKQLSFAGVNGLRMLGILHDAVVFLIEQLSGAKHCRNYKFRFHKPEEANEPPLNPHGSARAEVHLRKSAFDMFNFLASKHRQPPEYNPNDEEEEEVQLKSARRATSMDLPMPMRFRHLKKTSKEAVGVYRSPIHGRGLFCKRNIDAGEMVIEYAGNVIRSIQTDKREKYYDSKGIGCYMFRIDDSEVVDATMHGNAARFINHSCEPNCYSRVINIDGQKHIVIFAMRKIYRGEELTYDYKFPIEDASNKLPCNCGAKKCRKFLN

target: Histone-lysine N-methyltransferase 2A (Homo sapiens) (UniProt Q03164); experiment: qHTS Fluorescence Polarization Assay for Inhibitors of MLL CXXC domain - DNA interaction; details: MLL-CXXC / FITC-HOXA9 DNA fluorescence polarization; series mostly up to 115 µM
Summary of the method: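 Steps: dispense CXXC domain solution (7 uM) → pin compounds or unlabeled HOX-A9 DNA control → 5 min ambient → add FLSN-HOX-A9 solution (50 nM) → spin → 30 min ambient → fluorescence polarization. Tris pH 7.5/NaCl/DTT/BSA buffer.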
Potency is the fitted concentration of half-maximal effect.

Q: Which Potency does the source give for `COCCN(C(=O)COC(=O)COc1ccc(Cl)c(C)c1)c1c(N)n(Cc2ccccc2)c(=O)[nH]c1=O` here?
A: inconclusive: 35.5 µM [fluorescent, side channel, partial curve]

Q: Which Potency does the source give for `CCCCCCCCCCCCCCCCC(C(=O)O)C(O)(CC(=O)O)C(=O)O` (stereo not drawn) here?
A: inactive

Q: For `O=C(COC(=O)c1ccco1)Nc1nc2c(F)c(F)c(F)cc2s1`, which Potency is on record?
A: inactive

Q: `COC(=O)c1sc(=S)sc1C(=O)OC` was tested. Which Potency did it give?
A: inconclusive: 20 µM [inhibitor, partial curve]

Q: With `Cn1nc(C(=O)NCc2ccccc2Cl)c2c1-c1ccccc1S(=O)(=O)C2` as the compound, how does the Potency read?
A: inactive

Q: How did the Potency turn out when `O=C1C(Cl)=C(NCCN2CCOCC2)C(=O)c2ccccc21` was run?
A: inconclusive: 14.1 µM [fluorescent, side channel, single point]

Q: Which Potency does the source give for `CCOc1cc(C2NC(=O)CCC2[N+](=O)[O-])cc(Br)c1OCC` (stereo not drawn) here?
A: inconclusive: 14.1 µM [fluorescent, side channel, single point]

Q: For `C=CCn1c(O)c(N=Nc2ccccc2C)c2ccccc21`, which Potency is on record?
A: inconclusive: 31.6 µM [fluorescent, side channel, partial curve]

Q: `O=C(O)c1cccc(NC2=C(Cl)C(=O)c3ccccc3C2=O)c1` was tested. Which Potency did it give?
A: inconclusive: 25.1 µM [quencher, side channel, partial curve, poor fit]

Q: `O=C(Nc1ncnc2sc3c(c12)CCCCC3)c1ccc(F)cc1` was tested. Which Potency did it give?
A: inconclusive: 1.58 µM [fluorescent, side channel, full curve, poor fit]

Q: `COc1cc2c3nnc(-c4ccc(F)cc4)c-3cn(Cc3ccccc3)c2cc1OC` was tested. Which Potency did it give?
A: inconclusive: 70.8 µM [fluorescent, side channel, single point]

Q: For `O=C(Nc1ccc(Cl)c([N+](=O)[O-])c1)c1ccncc1`, which Potency is on record?
A: inactive

Q: With `Cc1ccc(NC(=O)CO/N=C/c2ccc(N(C)C)cc2)cc1` as the compound, how does the Potency read?
A: inconclusive: 39.8 µM [fluorescent, side channel, partial curve]

Q: Which Potency does the source give for `Nn1c(SCC(=O)N2CCOCC2)nnc1-c1ccco1` here?
A: inconclusive: 10 µM [fluorescent, side channel, single point]

Q: Which Potency does the source give for `O=C(CN1CCN(C(=O)c2ccccc2)CC1)Nc1ccccc1` here?
A: inconclusive: 12.6 µM [fluorescent, side channel, full curve]

Q: Which Potency does the source give for `N#Cc1c(-c2ccccc2Cl)cc(-c2ccccc2)nc1Br` here?
A: inconclusive: 50.1 µM [fluorescent, side channel, single point]

Q: Which Potency does the source give for `COC(=O)c1ccc(C(=O)Nc2nc3cc(N)c(C)cc3s2)cc1` here?
A: inconclusive: 10 µM [quencher, side channel, single point]

Q: Which Potency does the source give for `Cc1cccc(N(C(=O)CCC(=O)Nc2cc(C)on2)C(C(=O)NC2CCCC2)c2ccc(C)o2)c1` (stereo not drawn) here?
A: inactive

Q: For `Cc1cc(/C=C2\SC(=S)N(C)C2=O)c(C)n1-c1ccc(O)cc1`, which Potency is on record?
A: inconclusive: 11.2 µM [fluorescent, side channel, partial curve]

Q: Which Potency does the source give for `O=C(N/N=C/c1cc([N+](=O)[O-])ccc1Cl)c1cnccn1` here?
A: inactive

Q: With `Nc1ccc2nc3c(=O)n(C4CCCCC4)c(=O)[nH]c3nc2c1` as the compound, how does the Potency read?
A: inconclusive: 5.62 µM [fluorescent, side channel, full curve]

Q: `Cn1nc(C(F)(F)F)c(C#N)c1N1CCN(c2ccc(F)cc2)CC1` was tested. Which Potency did it give?
A: inactive

Q: For `CN(C)c1ccc(/C=C2\C(=N)N3N=C(CC(=O)N4CCCCC4)SC3=NC2=O)cc1`, which Potency is on record?
A: inconclusive: 7.94 µM [fluorescent, side channel, partial curve]

Q: `CC(=O)Nc1ccc(N=Cc2c(O)c(C(=O)Nc3ccccc3)cc3ccccc23)cc1` was tested. Which Potency did it give?
A: inconclusive: 14.1 µM [fluorescent, side channel, partial curve]

Q: For `Cc1cccc(NC(=S)NC2CCCC2)n1`, which Potency is on record?
A: inconclusive: 89.1 µM [inhibitor, single point]

Q: With `CCCN(CCC)C(=O)CC(c1ccccc1)c1cc(C)ccc1O` (stereo not drawn) as the compound, how does the Potency read?
A: inconclusive: 70.8 µM [quencher, side channel, single point]

Q: With `O=c1c2ccccc2c(C=Nc2ccccc2O)c(O)n1-c1nccs1` as the compound, how does the Potency read?
A: inconclusive: 3.98 µM [quencher, side channel, full curve, poor fit]

Q: How did the Potency turn out when `O=c1[nH]c(CN2CCN(c3ccccc3)CC2)nc2scc(-c3ccccc3)c12` was run?
A: inactive

Q: `CCc1ccc(CN2CCN(C(=O)c3ccco3)CC2)cc1` was tested. Which Potency did it give?
A: inconclusive: 1.58 µM [inhibitor, full curve, poor fit]

Q: `Cc1cc(OCc2cc(C(=O)N(C)C(C)c3ccccn3)no2)cc(C)c1Cl` (stereo not drawn) was tested. Which Potency did it give?
A: inactive

Q: `Cn1cc(/C=C2\SC(=S)N(NC(=O)c3cccc(Cl)c3)C2=O)c2ccccc21` was tested. Which Potency did it give?
A: inconclusive: 11.2 µM [fluorescent, side channel, partial curve]

Q: For `Cc1cc(C(C)(C)C)cc(S(=O)(=O)Nc2ccc(O)c(C(=O)O)c2)c1C`, which Potency is on record?
A: inactive

Q: How did the Potency turn out when `COc1c(OC2OC(C(=O)O)C(O)C(O)C2O)cc(O)c2c(=O)cc(-c3ccccc3)oc12` (stereo not drawn) was run?
A: inactive

Q: For `Cc1ccc([N+](=O)[O-])cc1NC(=O)c1ccoc1C`, which Potency is on record?
A: inconclusive: 31.6 µM [fluorescent, side channel, single point]

Q: With `CCN(CC)CCC(=O)Nc1cccc2c1C(=O)c1ccccc1C2=O` as the compound, how does the Potency read?
A: inconclusive: 25.1 µM [quencher, side channel, partial curve]

Q: `Nc1ccc2nc(-c3ccc(N)c(Cl)c3)[nH]c2c1` was tested. Which Potency did it give?
A: inactive

Q: `O=C(CSc1nnc(-c2ccncc2)n1Cc1ccccc1)NC1CCCc2ccccc21` (stereo not drawn) was tested. Which Potency did it give?
A: inconclusive: 1.26 µM [fluorescent, side channel, partial curve, poor fit]

Q: Which Potency does the source give for `COc1ccccc1C(=O)COC(=O)c1ccccc1O` here?
A: inconclusive: 15.8 µM [fluorescent, side channel, single point]

Q: How did the Potency turn out when `Cc1ccc(NC(=O)CCC(=O)NNC(=S)Nc2ccc(F)cc2F)cc1C` was run?
A: inconclusive: 15.8 µM [quencher, side channel, single point]

Q: How did the Potency turn out when `COc1ccc(NC(=O)c2ccc3[nH]c(=O)c(=O)[nH]c3c2)c(OC)c1` was run?
A: inactive

Q: `CCS(=O)(=O)N1CCc2nc(-c3ccccc3)sc2C1` was tested. Which Potency did it give?
A: inconclusive: 39.8 µM [fluorescent, side channel, partial curve]

Q: For `COc1ccccc1Nc1nc(Cl)c(C=O)s1`, which Potency is on record?
A: inconclusive: 39.8 µM [fluorescent, side channel, single point]

Q: With `COc1cnc(N(C)C)nc1Sc1ccc(Cl)cc1` as the compound, how does the Potency read?
A: inactive

Q: How did the Potency turn out when `Cc1ccc(CSC2=Nc3ccccc3C3=NC(=O)CN23)cc1` was run?
A: inactive

Q: With `CC(C)(C)c1cc(/C=C(\C#N)C(N)=S)cc(C(C)(C)C)c1O` as the compound, how does the Potency read?
A: inconclusive: 28.2 µM [fluorescent, partial curve]

Q: `N#C/C(=C\c1ccc(-c2ccc(C(=O)O)cc2)o1)C(=O)Nc1ccc(F)cc1` was tested. Which Potency did it give?
A: inconclusive: 70.8 µM [fluorescent, side channel, single point]

Q: Which Potency does the source give for `COc1ccccc1N=c1oc2cc(O)ccc2cc1C(N)=O` here?
A: inconclusive: 3.98 µM [fluorescent, side channel, full curve]

Q: For `CS(=O)(=O)NNC(=O)C1Cc2c(ccc3ccccc23)O1` (stereo not drawn), which Potency is on record?
A: inactive

Q: `N#Cc1ccc(NC(=O)CCc2ccc(S(=O)(=O)N3CCOCC3)cc2)cc1` was tested. Which Potency did it give?
A: inactive

Q: `CN(C)CCNc1ncnc2sc(-c3ccccc3)cc12` was tested. Which Potency did it give?
A: inactive

Q: How did the Potency turn out when `Cc1ccc(S(=O)(=O)/N=C2/C=C(Sc3ncn[nH]3)C(=O)c3ccccc32)cc1` was run?
A: inactive

Q: How did the Potency turn out when `O=c1[nH][nH]c2c(N=Cc3ccccc3O)ccc(F)c12` was run?
A: inconclusive: 39.8 µM [quencher, side channel, single point]

Q: For `CCOc1ccc(CN2CCN(Cc3ccc(C)o3)CC2CCO)cc1` (stereo not drawn), which Potency is on record?
A: inconclusive: 39.8 µM [quencher, side channel, single point]

Q: With `COc1ccc(CCNC(=O)CCCCn2c(=O)[nH]c3ccccc3c2=O)cc1OC` as the compound, how does the Potency read?
A: inconclusive: 6.31 µM [fluorescent, side channel, single point]

Q: `CCC(C)NC(=O)c1ccc(CSc2nc3ccncc3n2Cc2ccc(F)cc2)cc1` (stereo not drawn) was tested. Which Potency did it give?
A: inactive

Q: `COC(=O)c1ccc(CNC(=O)COC(=O)CC23CC4CC(CC(Br)(C4)C2)C3)cc1` was tested. Which Potency did it give?
A: inconclusive: 7.08 µM [fluorescent, side channel, full curve]

Q: For `Cc1ccc(COC(=O)c2cc([N+](=O)[O-])ccc2N2CCOCC2)cc1`, which Potency is on record?
A: inconclusive: 6.31 µM [fluorescent, side channel, single point]

Q: With `Cc1ccc(NC(=O)c2oc3ccccc3c2C)nc1` as the compound, how does the Potency read?
A: inconclusive: 12.6 µM [fluorescent, side channel, single point]

Q: `Cc1ccnc(OC(C(=O)O)C(OCc2ccccc2)(c2ccccc2)c2ccc(C(F)(F)F)cc2)n1` (stereo not drawn) was tested. Which Potency did it give?
A: inconclusive: 22.4 µM [inhibitor, partial curve]

Q: With `COc1ccc2c(C=Nc3c(C)n(C)n(-c4ccccc4)c3=O)c(O)n(Cc3ccco3)c(=O)c2c1` as the compound, how does the Potency read?
A: inconclusive: 35.5 µM [fluorescent, partial curve] and inconclusive: 39.8 µM [inhibitor, single point]

Q: For `COc1ccc(CC(=O)NC(=S)Nc2ccc(S(N)(=O)=O)cc2)cc1`, which Potency is on record?
A: inconclusive: 28.2 µM [fluorescent, side channel, partial curve]

Q: How did the Potency turn out when `Cc1ccc(C(=O)N/N=C/c2ccc(-c3ccccc3[N+](=O)[O-])o2)cn1` was run?
A: inactive

Q: With `CCCCCC/C(C)=C1/SC(=S)NC1=O` as the compound, how does the Potency read?
A: inactive
